# Percent effect of library compounds

Chains of the proteins cited; added tags and fusions are not shown. Residues count along the entry.
UniProt P9WNZ1, whole entry: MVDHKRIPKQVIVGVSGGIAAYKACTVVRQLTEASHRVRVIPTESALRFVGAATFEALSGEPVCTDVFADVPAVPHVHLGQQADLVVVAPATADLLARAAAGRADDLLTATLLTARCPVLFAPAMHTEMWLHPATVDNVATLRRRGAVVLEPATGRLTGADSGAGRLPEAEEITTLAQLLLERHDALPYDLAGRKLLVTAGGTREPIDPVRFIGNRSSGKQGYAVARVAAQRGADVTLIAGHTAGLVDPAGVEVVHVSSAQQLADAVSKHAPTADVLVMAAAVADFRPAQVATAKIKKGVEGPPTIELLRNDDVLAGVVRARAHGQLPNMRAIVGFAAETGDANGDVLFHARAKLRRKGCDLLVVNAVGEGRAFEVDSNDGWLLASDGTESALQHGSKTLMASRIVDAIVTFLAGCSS
UniProt Q8IDJ8, 1-583: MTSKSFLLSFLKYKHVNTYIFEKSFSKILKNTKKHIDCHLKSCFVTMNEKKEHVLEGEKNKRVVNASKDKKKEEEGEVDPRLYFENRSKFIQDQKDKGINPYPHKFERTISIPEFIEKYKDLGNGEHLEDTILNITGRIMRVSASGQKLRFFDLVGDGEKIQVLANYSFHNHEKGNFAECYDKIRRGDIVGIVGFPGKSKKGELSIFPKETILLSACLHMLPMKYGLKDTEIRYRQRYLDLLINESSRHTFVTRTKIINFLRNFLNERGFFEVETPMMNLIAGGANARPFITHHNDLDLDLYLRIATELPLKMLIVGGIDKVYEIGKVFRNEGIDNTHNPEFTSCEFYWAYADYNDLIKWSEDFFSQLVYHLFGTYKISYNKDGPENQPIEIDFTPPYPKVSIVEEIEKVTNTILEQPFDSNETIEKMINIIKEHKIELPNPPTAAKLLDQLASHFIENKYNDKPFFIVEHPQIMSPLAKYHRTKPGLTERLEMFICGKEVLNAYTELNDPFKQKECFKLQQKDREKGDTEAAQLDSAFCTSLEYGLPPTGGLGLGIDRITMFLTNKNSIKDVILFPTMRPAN
UniProt P9WFT3, whole entry: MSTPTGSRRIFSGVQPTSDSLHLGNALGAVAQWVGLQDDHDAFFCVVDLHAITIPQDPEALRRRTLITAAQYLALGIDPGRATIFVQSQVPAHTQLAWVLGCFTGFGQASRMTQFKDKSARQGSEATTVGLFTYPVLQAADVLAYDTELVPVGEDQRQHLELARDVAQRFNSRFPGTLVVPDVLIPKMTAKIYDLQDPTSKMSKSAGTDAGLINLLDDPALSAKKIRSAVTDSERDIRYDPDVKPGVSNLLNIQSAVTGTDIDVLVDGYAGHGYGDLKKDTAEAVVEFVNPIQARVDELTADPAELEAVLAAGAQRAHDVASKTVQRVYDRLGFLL
UniProt I6X8D2, whole entry: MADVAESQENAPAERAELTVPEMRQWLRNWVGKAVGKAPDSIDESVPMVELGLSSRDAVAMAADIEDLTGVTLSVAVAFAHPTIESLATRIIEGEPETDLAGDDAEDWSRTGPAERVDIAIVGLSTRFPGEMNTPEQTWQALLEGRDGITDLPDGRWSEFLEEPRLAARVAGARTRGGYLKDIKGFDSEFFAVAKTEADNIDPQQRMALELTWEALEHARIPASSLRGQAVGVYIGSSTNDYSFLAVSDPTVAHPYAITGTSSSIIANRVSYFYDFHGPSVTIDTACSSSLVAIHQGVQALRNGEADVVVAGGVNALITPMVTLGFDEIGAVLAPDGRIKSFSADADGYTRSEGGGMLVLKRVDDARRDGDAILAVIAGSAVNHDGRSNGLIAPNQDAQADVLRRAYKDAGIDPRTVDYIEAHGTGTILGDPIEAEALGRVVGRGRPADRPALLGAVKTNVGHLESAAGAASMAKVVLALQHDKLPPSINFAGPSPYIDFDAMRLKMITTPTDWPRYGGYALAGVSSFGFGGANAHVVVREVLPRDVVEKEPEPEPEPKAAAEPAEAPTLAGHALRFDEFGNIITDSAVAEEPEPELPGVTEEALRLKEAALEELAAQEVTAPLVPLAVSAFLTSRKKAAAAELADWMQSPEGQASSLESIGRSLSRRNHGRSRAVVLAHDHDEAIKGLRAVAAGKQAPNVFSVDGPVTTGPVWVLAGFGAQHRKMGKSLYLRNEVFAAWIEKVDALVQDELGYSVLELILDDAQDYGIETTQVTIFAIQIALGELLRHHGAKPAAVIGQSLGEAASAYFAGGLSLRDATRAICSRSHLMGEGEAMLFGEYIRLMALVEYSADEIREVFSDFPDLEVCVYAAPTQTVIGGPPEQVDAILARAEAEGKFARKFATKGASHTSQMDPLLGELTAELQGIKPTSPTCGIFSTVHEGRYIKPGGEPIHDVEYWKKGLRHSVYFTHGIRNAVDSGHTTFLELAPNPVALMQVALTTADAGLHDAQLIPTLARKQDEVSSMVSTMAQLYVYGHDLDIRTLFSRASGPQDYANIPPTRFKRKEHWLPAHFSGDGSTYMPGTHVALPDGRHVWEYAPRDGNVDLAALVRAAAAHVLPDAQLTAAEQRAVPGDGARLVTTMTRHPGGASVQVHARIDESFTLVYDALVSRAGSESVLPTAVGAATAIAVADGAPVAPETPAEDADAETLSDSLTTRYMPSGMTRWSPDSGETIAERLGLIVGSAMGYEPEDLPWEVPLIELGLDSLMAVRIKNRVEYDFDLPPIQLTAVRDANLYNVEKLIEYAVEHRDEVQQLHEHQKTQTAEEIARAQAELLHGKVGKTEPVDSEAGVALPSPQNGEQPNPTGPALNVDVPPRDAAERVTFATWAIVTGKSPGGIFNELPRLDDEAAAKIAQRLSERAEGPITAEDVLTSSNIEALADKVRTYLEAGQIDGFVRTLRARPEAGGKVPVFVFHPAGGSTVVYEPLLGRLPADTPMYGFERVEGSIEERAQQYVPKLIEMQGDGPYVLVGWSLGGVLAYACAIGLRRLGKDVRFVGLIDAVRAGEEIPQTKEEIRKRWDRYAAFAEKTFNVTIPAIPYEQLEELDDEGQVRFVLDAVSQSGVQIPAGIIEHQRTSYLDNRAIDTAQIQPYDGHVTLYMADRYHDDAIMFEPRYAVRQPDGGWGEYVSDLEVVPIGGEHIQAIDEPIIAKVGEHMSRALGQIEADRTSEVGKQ

A: 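Coenzyme A biosynthesis protein CoaBC, Mycobacterium tuberculosis (UniProt P9WNZ1). Enzyme assay of CoaBC with a phosphate dye (Biomol Green) read at 650 nm. Tested at 30 µM. Direction is inferred from only a few compounds that gave an IC50; most scored high, so higher reads as stronger inhibition. Most strong results did not repeat in a second test. Of about 67,000 compounds tested this way, about 40 (0.06%) reached 50% or more in at least one test.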
B: 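Enzyme assay of the cytosolic lysyl-tRNA synthetase in 384-well plates, read by luminescence. Target: Lysine-tRNA ligase, Plasmodium falciparum 3D7 (UniProt Q8IDJ8). Concentration: 30 µM. Higher reads as stronger inhibition, judged from the few compounds that gave an IC50. About 69,000 compounds were tested under these conditions; 0.071% (about 49) showed 50% or more at least once.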
C: 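Assay of Toxoplasma gondii numbers, read through their beta-galactosidase reporter with a colour substrate. Compounds at 10 µM. The record gives no direction; the compounds picked for IC50 retests had high values, so higher reads as fewer parasites. About 67,000 compounds were tested under these conditions; 0.38% (about 260) showed 50% or more at least once.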
D: 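Enzyme assay of tryptophanyl-tRNA synthetase; the read-out is not stated. Target: Tryptophan-tRNA ligase, Mycobacterium tuberculosis (UniProt P9WFT3). Compounds at 10 µM. Higher most likely means stronger inhibition; the record gives no direction and few retests gave an IC50. Of about 65,000 compounds tested this way, about 64 (0.098%) reached 50% or more in at least one test.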
E: 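Enzyme assay of the thioesterase domain of polyketide synthase 13; the read-out is not stated. Target: Polyketide synthase Pks13, Mycobacterium tuberculosis (UniProt I6X8D2). Compounds at 30 µM. The record gives no direction; the compounds picked for IC50 retests had high values, so higher reads as stronger inhibition. Of about 67,000 compounds tested this way, about 300 (0.46%) reached 50% or more in at least one test.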

Values are the deposited “Percent Effect”, in %.
The record does not define 0% and 100%; most values in the screen are far below 50% and negative numbers occur (in some assays of this library far below -100).
The compounds are a random part of those screened.
A dash means the value is not listed here; it may have been measured.

SMILES | A | B | C | D | E
O=C(O)CC(O)(CC(=O)O)C(=O)O.OCCN(Cc1ccncc1)CC1(c2ccc(Cl)cc2)CCCC1 | - | - | -5.282 | - | -
COCCNc1c(-c2ccc(C)cc2)c(=O)c1=O | -3.294 | -1.343 | 9.961 | -6.785 | 11.98
CN(CC(=O)N1CCCC1c1ccccn1)Cc1ccccc1 (centres unmarked) | 3.931 | 4.567 | -4.699 | 0.1282 | -25.27
CN(C)CC(=O)N1CCc2sc(C(=O)NCC3CC3)cc21.O=C(O)C(F)(F)F | - | - | -8.341 | - | -
CC(=O)c1c(C)nn(S(=O)(=O)c2ccccc2)c1C | -0.1156 | 2.356 | 13.15 | 3.948 | -6.287
Cc1nnc2n1CCN(C(=O)c1cc(Cl)c(Br)[nH]1)C2 | 3.325 | 2.415 | -36.25 | -4.576 | -6.464
CCCN1CCCn2c(nc(CNC(=O)c3ccsc3)cc2=O)C1.O=C(O)C(F)(F)F | - | - | -6.494 | - | -
CN(C)CCCn1ccc(-c2cccc(-c3cncnc3)c2)n1 | 1.366 | 0.612 | -27.18 | -5.933 | 3.425
Cc1nn(C)c(Cl)c1C1CCCN1C(=O)c1cccc(C#N)c1 (centres unmarked) | 14.25 | -1.777 | -16.18 | -6.635 | 7.313
COC[C@@]12CCO[C@@H]1CCN(C(=O)COc1ccc(C)cc1)C2 | -1.356 | 4.356 | - | 0.3003 | -2.464
CC(C)C(C)NC(=O)Nc1ccc(F)c(C(N)=O)c1 (centres unmarked) | -8.311 | 1.085 | 6.778 | 2.442 | -16.97
CN1CCN(Cc2cnc3n2CCN(CCc2ccccc2)C3)CC1 | 5.402 | 0.2685 | - | 11.7 | -41.28
O=C(O)C(F)(F)F.O=C1CC[C@]2(CC[C@@H](NC3CCOC3)CC2)N1Cc1ccccc1 (some centres unmarked) | - | - | -19.5 | - | -
Cc1nc(C2CCCN2Cc2ccn(C)c(=O)c2)no1 (centres unmarked) | 2.895 | 0.8768 | 0.07825 | -4.278 | -12.01
CCn1ccnc1C1CCN(Cc2c(F)cccc2F)CC1 | 3.78 | -3.067 | 11.63 | -5.695 | 4.875
CC(=O)N1CCc2nc(C3CCN(C(=O)c4ccccc4)C3)ncc2C1 (centres unmarked) | 1.703 | 2.512 | -59.21 | 1.449 | 4.017
Cc1noc(C)c1-c1nc(C2CCCN(C(=O)C(C)C)C2)ccc1CO (centres unmarked) | -4.566 | 0.6147 | 7.711 | 0.7542 | -1.537
CC(C)OCCCNC(=O)C1CCCN(c2ccc3nncn3n2)C1 (centres unmarked) | 0.7663 | 3.433 | -19.01 | -4.203 | -29.66
CN1CCOCC2(CCN(Cc3ccc[nH]3)CC2)C1 | - | -4.757 | - | 12.11 | 28.9
O=C(c1cc(=O)c(OCc2ccccc2F)co1)N1CCSCC1 | 0 | 6.071 | -8.024 | -2.113 | 2.536
Cc1nc(O)cc(C2CCN(C(=O)CN(C)c3ccccc3)CC2)n1 | -2.893 | -0.01131 | -1.598 | -4.739 | -41.25
O=C(Nc1cnc2n1CCCC2)c1cccc(NC(=O)C2CCCC2)c1 | 5.383 | 2.971 | -6.45 | 1.205 | -24.75
CCCN1CCC(Nc2nc(CC)ns2)CC1 | 0.8147 | 6.665 | -2.644 | 0.4955 | 6.756
COC(=O)N1CCc2ccccc2C1C(=O)NCc1ccccn1 (centres unmarked) | 3.594 | 11.62 | -2.317 | -0.3799 | 0.5726
Cc1cc(N2CCCN(c3ccnc(C)c3)CC2)ccn1 | -6.925 | 4.522 | 5.229 | 0.892 | -12.92
CCn1ccnc1CN1CCN(C(C)C(=O)NCC(F)(F)F)CC1 (centres unmarked) | -4.464 | -1.096 | 4.345 | 7.327 | -6.141
O=C(NC1(c2cccc(F)c2)CCOCC1)c1cc[nH]n1 | -0.4545 | -1.182 | 11.27 | -0.08285 | -11.82
O=C(c1cncc(NCC2COc3ccccc3C2)n1)N1CCCC1 (centres unmarked) | 17.15 | 10.02 | 13.29 | 0.2138 | 16.65
c1ccc2oc(CN3CCCCC3Cn3cncn3)nc2c1 (centres unmarked) | -7.895 | 1.314 | -6.738 | 4.036 | -0.3326
COc1ccc(CN(C(=O)C2CCCO2)c2ccncc2)cc1 (centres unmarked) | -4.507 | 2.782 | 15.4 | -3.436 | -19.08
Cc1cc2n(n1)CC(CNCCNC(=O)c1ccc(F)cc1)CN2 (centres unmarked) | -19.87 | 1.945 | 7.332 | -0.4409 | -19.13
CC(C)Sc1ccc(C(C)Nc2nc3c(cnn3C)c(=O)[nH]2)cc1 (centres unmarked) | -0.4132 | 4.061 | 2.781 | -2.611 | 2.7
O=C(Cc1cccnc1)N1C[C@H]2CC[C@@H]1CN(Cc1ccc(F)cc1)C2 | -0.2058 | -3.714 | - | 3.119 | 13.49
O=C1C[C@H]2CC[C@@H](CN1)N2C1CSCCSC1 | 12.53 | -5.734 | - | 3.769 | -0.6412
Cc1noc(C)c1CN(C)CC(c1cccs1)N1CCOCC1 (centres unmarked) | 2.551 | -0.3295 | 4.244 | -10.45 | 4.943
Cc1oc(C)c(C(=O)NCc2cccc(C(N)=O)c2)c1C | -8.311 | 0.8977 | -7.045 | -0.1704 | -14.72
Cc1c(CNS(=O)(=O)c2cccc(COC(C)C)c2)cnn1C | -3.666 | 4.498 | -0.5288 | -0.4955 | -11.12
COc1ccc(CNC(=O)Cc2csc(C(C)=O)c2)cc1 | 9.524 | 3.277 | 0.3748 | -2.916 | -10
O=C(Nc1nncs1)c1ccc(-n2cnnn2)cc1 | -3.415 | -0.9443 | 7.513 | -8.616 | 6.184
CC(=O)N(C)CC(=O)NCC1CCN(c2cc(Cl)ccc2C)C1 (centres unmarked) | 0.7895 | -1.118 | -6.416 | -8.155 | -11.75
Cc1ccc(CN(CCN(C)C)C(=O)Nc2ccc(C)c(C#N)c2)s1 | -29.71 | 8.165 | 0.6242 | -4.693 | -24.82
CCc1nc2n(n1)CC(Nc1cc(C)nc3ncnn13)CC2 (centres unmarked) | 6.61 | 0.6144 | -4.269 | -1.497 | -6.9
Cc1nccc(NCc2cncc3c2CCN(S(C)(=O)=O)C3)n1 | -2.469 | 3.326 | - | - | -7.768
COc1cccc(-c2noc(C3CCN(Cc4ccc(C)cc4)C3)n2)c1.Cl (centres unmarked) | - | - | 9.374 | - | -
CNc1snc(C)c1C(=O)N1CCC(Nc2ccc(C)nn2)CC1 | 6.905 | 0.8539 | -17.13 | 3.848 | -20.21
CC(C)Cc1cc(NC(=O)c2ccncc2)n(C)n1 | -3.484 | 1.57 | 4.035 | -0.6816 | -7.556
CCCNS(=O)(=O)c1ccc2[nH]c(=O)cc(C)c2c1 | 2.405 | 3.236 | -0.05432 | 2.039 | 1.347
CN(Cc1nc2ccccc2c(=O)[nH]1)C[C@@H]1CCCN2CCCC[C@H]12 | 4.615 | 5.051 | - | -0.6988 | -17.18
CC(C)Cc1noc(COc2ccc(N(C)C(N)=O)cc2)n1 | 5.353 | -0.1894 | 9.359 | -0.8227 | -33.3

Some entries from above, unchanged:

SMILES,A,B,C,D,E
Cc1noc(C)c1CN(C)CC(c1cccs1)N1CCOCC1 (centres unmarked),2.551,-0.3295,4.244,-10.45,4.943
Cc1nn(C)c(Cl)c1C1CCCN1C(=O)c1cccc(C#N)c1 (centres unmarked),14.25,-1.777,-16.18,-6.635,7.313
CCCN1CCCn2c(nc(CNC(=O)c3ccsc3)cc2=O)C1.O=C(O)C(F)(F)F,-,-,-6.494,-,-
Cc1cc2n(n1)CC(CNCCNC(=O)c1ccc(F)cc1)CN2 (centres unmarked),-19.87,1.945,7.332,-0.4409,-19.13

From ChEMBL document CHEMBL3988442, “University of Dundee, Small-Polar-MMV Screening Library” (2021).